PMC7862700
This is a selection; strong and weak results do not stand in their true shares. For part of these data: At the low end of the ranking the order means little. The list shows a part of the results. For part of these data: Construct or isoform of the protein are uncertain.

Sequences of proteins named here, by UniProt entry; tags and fusion partners are left off. A change or cut given only in a name is not applied to a line headed by its entry.
UniProt Q00613: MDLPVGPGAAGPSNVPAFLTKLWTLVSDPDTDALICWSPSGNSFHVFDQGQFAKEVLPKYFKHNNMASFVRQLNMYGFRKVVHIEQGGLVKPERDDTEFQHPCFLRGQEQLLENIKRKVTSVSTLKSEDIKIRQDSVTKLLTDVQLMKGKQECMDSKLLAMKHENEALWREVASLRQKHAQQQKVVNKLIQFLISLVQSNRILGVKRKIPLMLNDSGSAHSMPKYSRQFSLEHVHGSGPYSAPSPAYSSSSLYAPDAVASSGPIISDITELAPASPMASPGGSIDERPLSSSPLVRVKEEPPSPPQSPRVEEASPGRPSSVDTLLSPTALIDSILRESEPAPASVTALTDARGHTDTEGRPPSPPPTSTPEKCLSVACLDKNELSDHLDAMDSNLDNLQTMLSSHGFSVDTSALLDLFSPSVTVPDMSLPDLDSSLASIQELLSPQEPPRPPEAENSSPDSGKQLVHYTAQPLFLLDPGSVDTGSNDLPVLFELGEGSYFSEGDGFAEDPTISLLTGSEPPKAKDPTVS

Columns and labels:
HSF1 = HSF1 (UniProt Q00613); assay: DAPPL (digital affinity profiling via proximity ligation, sequencing); settings: 10 mM Tris-HCl pH 7.5, 50 mM NaCl, 1 mM DTT, 4% glycerol, room temperature, 30 min; GST-TFs on glutathione beads, 16-mer random dsDNA library, 0.1% …; high values mean tight binding; double strand, one strand shown; scale: fold enrichment (6-mer frequency, TF over GST control)
ELF2 = molecular target: T1, ELF2 (UniProt Q15723); assay: as above; settings: 10 mM Tris-HCl pH 7.5, 50 mM NaCl, 1 mM DTT, 4% glycerol, room temperature, 30 min; GST-TFs on glutathione beads, 16-mer random dsDNA library, 0.1% …; high values mean tight binding; double strand, one strand shown; scale: fold enrichment (6-mer frequency, TF over GST control)
T1 sequence: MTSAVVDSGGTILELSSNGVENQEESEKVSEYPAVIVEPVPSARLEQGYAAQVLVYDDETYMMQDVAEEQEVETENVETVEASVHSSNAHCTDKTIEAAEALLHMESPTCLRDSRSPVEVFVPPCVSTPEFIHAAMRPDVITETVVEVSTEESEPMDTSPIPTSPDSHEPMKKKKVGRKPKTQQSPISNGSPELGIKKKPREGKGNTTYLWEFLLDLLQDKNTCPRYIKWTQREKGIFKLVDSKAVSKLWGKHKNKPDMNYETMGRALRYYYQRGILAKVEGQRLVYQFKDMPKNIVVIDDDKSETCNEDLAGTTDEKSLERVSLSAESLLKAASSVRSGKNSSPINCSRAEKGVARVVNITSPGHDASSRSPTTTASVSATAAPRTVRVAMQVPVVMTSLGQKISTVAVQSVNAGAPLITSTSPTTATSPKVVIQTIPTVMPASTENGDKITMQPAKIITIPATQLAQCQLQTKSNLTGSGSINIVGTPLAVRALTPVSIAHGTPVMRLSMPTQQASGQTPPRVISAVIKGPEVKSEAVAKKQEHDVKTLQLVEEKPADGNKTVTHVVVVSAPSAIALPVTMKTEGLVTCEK

Sequence | binding signal (HSF1) | binding signal (ELF2)
ATCCGC | 1.58 | 1.98
TAACCC | 1.3 | 1.31
GAACAC | 1.21 | 1.14
GTTACG | 0.795 | 0.974
CGATTC | 1.35 | 1.14
GTCTTC | 1.17 | 1.56
CTAGCT | 1.53 | 1.23
AAGATA | 1.33 | 1.16
ATGCAT | 1 | 1.19
ATGTCC | 1.03 | 1.81
CGACGT | 1 | 1
GGGCTA | 0.989 | 1.06
AAGTCA | 0.966 | 1.25
CACTTA | 1.26 | 1.2
CGAAAA | 1.85 | 1.05
TTGCGT | 0.945 | 0.986
AATTAG | 1.39 | 1.14
AAACGG | 0.871 | 1.24
CGCTTT | 1.11 | 1.19
CTGCCT | 1.13 | 1.2
ACACAC | 0.952 | 1.16
CTCTGG | 1.81 | 1.23
TATTCC | 2.11 | 1.82

Single values from the entries so far.
Value for ATGTCC under binding signal (HSF1): 1.03
Value for CGCTTT under binding signal (ELF2): 1.19
Value for CACTTA under binding signal (HSF1): 1.26
Value for CTCTGG under binding signal (ELF2): 1.23
Value for GGGCTA under binding signal (ELF2): 1.06

(next part)

Sequence | binding signal (HSF1) | binding signal (ELF2)
CAAAAT | 1.2 | 1.17
CAGAAT | 2.05 | 0.98
AAAAGC | 1.3 | 1.23
CCTACG | 1.21 | 1.39
AGCAGC | 0.981 | 1.13
AATACA | 1.25 | 1.37
TTGGCC | 0.987 | 1.02
GAAATC | 1.23 | 1.7
TCTCCC | 1.65 | 1.59
GGAAGC | 0.794 | 2.32
ACCACT | 0.982 | 1.3
GATACG | 0.856 | 1.15
CCGCAC | 1.13 | 1.56
GGCTAG | 1.18 | 1.08
TGGACC | 0.863 | 1.05
GCCAAT | 0.942 | 1.04
CCCCCG | 0.884 | 1.08
ATCATT | 1.18 | 1
CGCCCT | 1.13 | 1.35
CTAGTT | 1.51 | 1.34
TCGACC | 1.23 | 1.19
ATGAAT | 1.19 | 1.08
GCATCC | 0.797 | 1.68

Sequence | binding signal (HSF1) | binding signal (ELF2)
CCGATG | 0.99 | 1.02
CTAATT | 1.47 | 1.35
TCCAAT | 1.23 | 1.13
CAAGGT | 0.938 | 0.991
TGGCTA | 1.25 | 1.16
TTTTAC | 1.37 | 1.38
TTGTGG | 1.37 | 1.35
CACGAA | 1.39 | 1.08
ATATTA | 1.35 | 1.14
GTTGCA | 0.84 | 1.14
TCCACA | 1.36 | 1.2
TGCTGT | 0.836 | 1.02
CGCTAC | 0.881 | 1.19
ACTTTG | 1.14 | 1.15
TGAACC | 0.965 | 1.13
CCAATG | 0.984 | 1.03
ACCGGA | 0.934 | 4.42
TTGCGG | 1.04 | 1.51
ATGTGT | 0.815 | 1.09
AACCAA | 1.08 | 1.25
AAAAAG | 1.34 | 1.2
GGCTCC | 1.13 | 1.28
GACCTG | 1.01 | 1.15

Sequence | binding signal (HSF1) | binding signal (ELF2)
TCCTAT | 1.41 | 1.69
ACATCA | 0.911 | 1.1
CTAATC | 3.22 | 1.24
GTCTCA | 1.01 | 1.25
AAATCC | 1.9 | 1.72
GCTACC | 0.955 | 1.26
GGAATT | 1.45 | 1.35
CGCCCG | 0.986 | 1.13
CTCTGA | 1.06 | 1.09
AACTTC | 2.02 | 3.35
CGTCTA | 1.52 | 1.22
TCGCTA | 1.15 | 0.977
TATTGT | 1.27 | 1.31
TGGCAG | 0.98 | 1.04
TGTTCA | 1.09 | 1.16
TTCCTG | 1.63 | 3.33
ACTCTA | 1.63 | 1.38
TTTCCT | 1.73 | 3.09
TCACAG | 0.985 | 1.06
ACATGG | 0.957 | 1.05
TGCTAA | 1.32 | 1.22
CGTCCG | 0.81 | 1.43
GCTGAT | 1.16 | 1.11

Sequence | binding signal (HSF1) | binding signal (ELF2)
CTTTTG | 1.36 | 1.35
GGAAAC | 0.945 | 1.68
CCGGTA | 0.871 | 1.93
TAGGTT | 1.18 | 1.11
TGCCAA | 0.979 | 1.02
AACAGG | 0.833 | 1.29
CCCTCG | 1.22 | 1.13
TATGAA | 1.21 | 1.11
AGATCC | 1.11 | 1.15
CCCATG | 0.858 | 0.995
ACGTTA | 1.04 | 1.03
ATCTAG | 2.66 | 1.07
ACCACC | 0.891 | 1.04
GTCACA | 0.821 | 1.05
TCTTGC | 1.2 | 1.26
TTTGAG | 1.1 | 1.03
AGAAGC | 1.96 | 1.12
GCTTTA | 1.25 | 1.07
CAATCA | 0.987 | 1.05
CTCAAC | 1.1 | 1.21
TTAAAA | 1.87 | 1.2
CTCTGC | 1.25 | 1.39
